Test results taken from publication PMC9579145.
These are yes or no findings as the source states them, for the method shown. In cells and extracts the contact can be indirect. Some results given as binding are weak or reduced against the parent protein; the word gives no strength. Sequences can lack the tags named with a protein.

Target: T1, FLAG (DYKDDDDK)-tagged Tmem65 (UniProt Q4VAE3)
T1 sequence: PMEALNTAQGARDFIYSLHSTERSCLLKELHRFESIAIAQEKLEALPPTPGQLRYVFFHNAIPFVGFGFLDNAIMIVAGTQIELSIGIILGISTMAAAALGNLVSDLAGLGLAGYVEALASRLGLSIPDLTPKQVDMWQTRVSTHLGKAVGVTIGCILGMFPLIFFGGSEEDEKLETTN
Assay: co-IP; transfected HEK-293 cells; 500 µg soluble proteins with FLAG antibody overnight at 4 °C, protein A/G agarose; blot with HA antibody; same immunoprecipitation buffer

“HA (…)-tagged β1 (from UniProt P97952 19-218)” was tested, and the binding was “binds”.
